In the supplement of paper PMC12024529:
Where a name gives a salt, the structure may show the parent alone. This is one part of the list. Baselines shift from plate to plate; read single values as rough.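 Wild-type or misfolding-prone missense mutant B-domain-deleted factor VIII, fused to Gaussia luciferase, is stably expressed in HEK293 lines. Each score is (mean triplicate-well luminescence minus DMSO mean) divided by DMSO standard deviation. Hits score at least 2; lower scores could stem from decreased secretion or poorer cell viability.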

Assays:
[1] = system: HEK293 WT BDD-FVIII-Gluc; experiment: secreted FVIII-Gluc luciferase Z-score vs DMSO control; higher = more FVIII-Gluc secretion; details: 5 µM; 24 h
[2] = system: HEK293 p.N1941S BDD-FVIII-Gluc; experiment: as above; details: 5 µM; 24 h

Compound | secreted FVIII-Gluc luciferase Z-score [1] | secreted FVIII-Gluc luciferase Z-score [2]
NC(=O)N1c2ccccc2CC(=O)c2ccccc21 [Oxcarbazepine] | inactive: -1.31 | inactive: 0.151
CC1=C(CC(=O)O)c2cc(F)ccc2/C1=C\c1ccc([S+](C)[O-])cc1 (configuration not stated) [Sulindac (Clinoril)] | inactive: 0.159 | inactive: -1.72
O=c1[nH]c(=O)n(C2CCCO2)cc1F (configuration not stated) [Ftorafur] | inactive: -4.13 | inactive: 0.0433
CCOc1ccc2nc3cc(N)ccc3c(N)c2c1 [Ethacridine lactate monohydrate] | inactive: 0.314 | inactive: 1.54
O=C(CCNNC(=O)c1ccncc1)NCc1ccccc1 [Nialamide] | inactive: -1.05 | inactive: 1.24
Nc1ccn([C@H]2CC[C@@H](CO)O2)c(=O)n1 [Zalcitabine] | inactive: -3.29 | inactive: -0.207
COc1ccccc1OCC(O)CN1CCN(CC(=O)Nc2c(C)cccc2C)CC1 (configuration not stated) [Ranolazine dihydrochloride] | inactive: -2.7 | inactive: 0.149
O=C(O)Cc1ccccc1Nc1c(Cl)cccc1Cl [Diclofenac] | inactive: -2.45 | inactive: -2.85
CCCCCCNC(=O)n1cc(F)c(=O)[nH]c1=O [Carmofur] | inactive: -2.57 | inactive: -0.859
CC(=O)OCC(=O)[C@H]1CC[C@H]2[C@@H]3CCC4=CC(=O)CC[C@]4(C)[C@H]3CC[C@]12C [Deoxycorticosterone acetate] | inactive: 0.663 | inactive: 1.1
Nc1ncn([C@@H]2O[C@H](CO)[C@@H](O)[C@H]2O)c(=O)n1 [Azacitidine (Vidaza)] | inactive: -5.49 | inactive: -1.31
CC[C@H]1OC(=O)[C@H](C)[C@@H](O[C@H]2C[C@@](C)(OC)[C@@H](O)[C@H](C)O2)[C@H](C)[C@@H](O[C@@H]2O[C@H](C)C[C@H](N(C)C)[C@H]2O)[C@](C)(OC)C[C@@H](C)C(=O)[C@H](C)[C@@H](O)[C@]1(C)O [Clarithromycin (Biaxin, Klacid)] | inactive: -0.216 | inactive: -2.65
O=C(CCCN1CCC(O)(c2ccc(Cl)cc2)CC1)c1ccc(F)cc1 [Haloperidol (Haldol)] | inactive: -1.66 | inactive: 0.282
CN(C)CCOc1ccc(/C(=C(/CCCl)c2ccccc2)c2ccccc2)cc1 [Toremifene Citrate (Fareston, Acapodene)] | inactive: -0.939 | inactive: -0.472
C[C@H]1C[C@H]2[C@@H]3CCC4=CC(=O)C=C[C@]4(C)[C@H]3C(=O)C[C@]2(C)[C@@]1(O)C(=O)CO [Betapar (Meprednisone)] | inactive: 0.156 | inactive: 0.746
C[C@@H](O)[C@H]1C(=O)N2C(C(=O)O)=C(S[C@@H]3CN[C@H](CNS(N)(=O)=O)C3)[C@H](C)[C@H]12 [Doripenem Hydrate] | inactive: -2.73 | inactive: -2.71
CCC[C@@H]1C[C@@H](C(=O)N[C@@H]([C@H]2O[C@H](SC)[C@H](O)[C@@H](O)[C@H]2O)[C@H](C)Cl)N(C)C1 [Clindamycin] | inactive: -2.43 | inactive: 0.259
Cc1cnc(C(=O)O)c[n+]1[O-] [Acipimox] | inactive: 1.08 | inactive: -0.932
C=C1[C@H](CO)[C@@H](O)C[C@@H]1n1cnc2c(=O)[nH]c(N)nc21 [Entecavir hydrate] | inactive: -1.45 | inactive: -0.508
Cc1cc(C(C)(C)C)c(O)c(C)c1CC1=NCCN1 [Oxymetazoline hydrochloride] | active: 2.01 | inactive: -0.613
O=C1c2c(O)ccc(O)c2C(=O)c2c(NCCNCCO)ccc(NCCNCCO)c21 [Mitoxantrone Hydrochloride] | inactive: -5.68 | inactive: -7.82
N#CC1(c2ccc(NC(=O)c3cccnc3NCc3ccncc3)cc2)CCCC1 [Apatinib (YN968D1)] | inactive: -0.0563 | inactive: -1.08
CCCC1O[C@@H]2C[C@H]3[C@@H]4CCC5=CC(=O)C=C[C@]5(C)[C@H]4[C@@H](O)C[C@]3(C)[C@]2(C(=O)CO)O1 (some centres not stated) [Budesonide] | inactive: -0.397 | inactive: -1.87
CC1(C)[C@H](C(=O)O)N2C(=O)C[C@H]2S1(=O)=O [Sulbactam sodium (Unasyn)] | inactive: 0.519 | inactive: -4.34
C[C@@H]1[C@H](O)[C@@H](C)/C=C/C=C/C=C/C=C/C=C/C=C/C=C/[C@H](O[C@@H]2O[C@H](C)[C@@H](O)[C@H](N)[C@@H]2O)C[C@@H]2O[C@](O)(C[C@@H](O)C[C@@H](O)[C@H](O)CC[C@@H](O)C[C@@H](O)CC(=O)O[C@H]1C)C[C@H](O)[C@H]2C(=O)O [Amphotericin B] | inactive: 0.748 | inactive: -3.35
COc1ccccc1OCCNCC(O)COc1cccc2[nH]c3ccccc3c12 (configuration not stated) [Carvedilol] | inactive: -2.3 | inactive: -1.59

Another view of part of the listing above:

| Compound | secreted FVIII-Gluc luciferase Z-score [1] | secreted FVIII-Gluc luciferase Z-score [2] |
| --- | --- | --- |
| N#CC1(c2ccc(NC(=O)c3cccnc3NCc3ccncc3)cc2)CCCC1 [Apatinib (YN968D1)] | inactive: -0.0563 | inactive: -1.08 |
| CCCC1O[C@@H]2C[C@H]3[C@@H]4CCC5=CC(=O)C=C[C@]5(C)[C@H]4[C@@H](O)C[C@]3(C)[C@]2(C(=O)CO)O1 (some centres not stated) [Budesonide] | inactive: -0.397 | inactive: -1.87 |
